Measured data: PubChem BioAssay AID624150 (Cancer Research UK Cambridge, 2012)
Purpose: 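Effect of silencing chromatin genes on per-cell differentiation marker amount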 (primary screen). Cells: primary human epidermal keratinocytes. Reagents: siRNA pool against human genes, 1-2 µM siRNA in 20 µl nucleofection. Time to read-out: 72 h after transfection plus 48 h differentiation (about 5 days). Challenge: five arms for 48 h: vehicle, AG1478 10 µM, BMP2/7 200 ng/ml, both together, or 10% serum. Detection: 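Per-cell amount of a differentiation marker read by infrared scanning of the plate, given as a z-score within each plate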. Reading the numbers: z-score, vehicle and z-score, AG1478 10 µM and z-score, BMP2/7 200 ng/ml and z-score, AG1478 with BMP2/7 and z-score, 10% serum: higher = more differentiation marker per cell.
In all, the deposit lists 331 reagents; this is a part drawn at random. 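Each arm had three replicate z-scores, but only the first replicate is printed; higher values mean more differentiation marker per cell.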

no.	gene knocked down	PubChem SID	z-score, vehicle	z-score, AG1478 10 µM	z-score, BMP2/7 200 ng/ml	z-score, AG1478 with BMP2/7	z-score, 10% serum
1	DNMT3A	SID135635662	-1.5	-1.82	-0.304	-1.67	-1.56
2	CHD9	SID135635650	0.0318	-0.177	-0.013	-0.398	0.0949
3	SIRT3	SID135635883	0.272	-0.699	-0.159	-2.17	0.147
4	TCF19	SID135635796	-1.14	-1.63	-1.04	-1	-0.821
5	SUV39H2	SID135635866	-0.0678	-0.228	0.31	-0.369	-0.254
6	CHD4	SID135635648	-2.09	-2.55	-1.87	-2.7	-2.47
7	TP53BP1	SID135635918	-0.415	0.184	-0.0287	0.518	-0.254
8	KMT2B	SID135635872	-0.616	-0.121	0.141	-0.494	0.179
9	PSIP1	SID135635821	-0.48	-0.438	-0.626	-0.547	-0.662
10	LBR	SID135635903	0.407	-0.774	-0.377	-0.175	-0.167
11	HDAC11	SID135635681	1.19	0.0509	0.528	1.01	0.598
12	AKAP1	SID135635912	-0.0519	-0.682	-0.611	-0.999	-0.119
13	CREBBP	SID135635672	-1.18	-1.89	-2.39	-1.66	-3.32
14	SND1	SID135635908	0.0268	-0.174	-0.931	0.683	0.325
15	PHF2	SID135635807	-0.619	-0.815	-0.234	-0.383	-0.0748
16	PBRM1	SID135635591	0.901	0.602	1.06	0.431	0.725

An excerpt from the list above, as a working copy:
no.	gene knocked down	PubChem SID	z-score, vehicle	z-score, AG1478 10 µM	z-score, BMP2/7 200 ng/ml	z-score, AG1478 with BMP2/7	z-score, 10% serum
10	LBR	SID135635903	0.407	-0.774	-0.377	-0.175	-0.167
11	HDAC11	SID135635681	1.19	0.0509	0.528	1.01	0.598
12	AKAP1	SID135635912	-0.0519	-0.682	-0.611	-0.999	-0.119

The list goes on.
no.	gene knocked down	PubChem SID	z-score, vehicle	z-score, AG1478 10 µM	z-score, BMP2/7 200 ng/ml	z-score, AG1478 with BMP2/7	z-score, 10% serum
17	SMARCC1	SID135635637	-0.876	0.385	0.675	1.87	0.265
18	EHMT1	SID135635854	1.89	2.53	1.97	1.67	-0.384
19	CHD3	SID135635647	-1	-1.61	-1.54	-1.1	-1.79
20	TTF2	SID135635894	-0.564	-0.802	-0.145	-0.07	-0.12
21	CDYL	SID135635642	0.153	0.242	-0.215	-0.217	0.499
22	ING5	SID135635771	2.71	2.39	1.81	1.48	2.29
23	ATF7IP	SID135635730	-1.08	0.245	0.59	1.06	-0.301
24	MBD3L2	SID135635732	-0.668	-0.248	-0.261	-0.222	0.731
25	DPF2	SID135635775	2.29	1.94	0.913	0.807	1.5
26	DPF1	SID135635774	1.56	0.414	0.578	0.0995	0.827
27	PHF3	SID135635772	0.0122	0.178	-0.356	0.651	0.0786
28	KDM3B	SID135635699	-0.564	-0.718	-0.496	-0.992	-0.404
29	PRMT3	SID135635814	-0.488	-0.0836	-1.11	-1.02	-0.398
30	MTA3	SID135635590	0.837	1.63	0.608	1.22	0.713
31	TRMT11	SID135635657	-1.07	-1.21	0.515	-2.04	-1.34
32	ZMYND11	SID135635805	-0.288	-1.03	-0.732	-0.305	-0.222
33	PRDM9	SID135635858	-1.1	0.969	1.35	0.737	0.522
34	DPF3	SID135635760	-0.207	0.571	2.02	1.14	1.66
